Assay [1] has as its target T1, TIA-1 related protein (TIA-R) (human (endogenous in frontal cortex tissue)) (UniProt Q01085).
T1 sequence: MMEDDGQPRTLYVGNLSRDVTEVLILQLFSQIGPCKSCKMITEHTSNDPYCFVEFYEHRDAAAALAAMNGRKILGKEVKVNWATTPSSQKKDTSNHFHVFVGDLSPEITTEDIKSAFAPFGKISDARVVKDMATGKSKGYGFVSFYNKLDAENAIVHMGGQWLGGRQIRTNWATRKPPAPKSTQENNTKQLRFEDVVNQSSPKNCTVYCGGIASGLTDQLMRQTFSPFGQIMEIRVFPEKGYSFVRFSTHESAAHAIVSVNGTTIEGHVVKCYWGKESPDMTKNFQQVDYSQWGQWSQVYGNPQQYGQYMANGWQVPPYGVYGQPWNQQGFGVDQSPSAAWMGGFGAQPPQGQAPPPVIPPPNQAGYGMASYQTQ
In words: affinity purification with mass spectrometry.

The target of assay [2] is T2, TIA-1 related protein (TIA-R) (human (endogenous in frontal cortex tissue)), Q01085.
T2 chain: T1 sequence
Kind of assay: affinity purification with mass spectrometry. The conditions noted are these: remark: other sources report otherwise.

No constants are given. Whether binding was seen depends on the method and setting. Binding seen in cells or lysates may run through a third protein. These calls come from enrichment with a bait or labelling near it, and not all partners need be listed.

Experimental findings from publication doi:10.1101/2025.07.20.665556 are described below.

B1: SERPINH1 (protein, UniProt P50454 19-418)
chain: AEVKKPAAAAAPGTAEKLSPKAATLAERSAGLAFSLYQAMAKDQAVENILVSPVVVASSLGLVSLGGKATTASQAKAVLSAEQLRDEEVHAGLGELLRSLSNSTARNVTWKLGSRLYGPSSVSFADDFVRSSKQHYNCEHSKINFRDKRSALQSINEWAAQTTDGKLPEVTKDVERTDGALLVNAMFFKPHWDEKFHHKMVDNRGFMVTRSYTVGVMMMHRTGLYNYYDDEKEKLQIVEMPLAHKLSSLIILMPHHVEPLERLEKLLTKEQLKIWMGKMQKKAVAISLPKGVVEVTHDLQKHLAGLGLTEAIDKNKADLSRMSGKKDLYLASVFHATAFELDTDGNPFDQDIYGREELRSPKLFYADHPFIFLVRDTQSGSLLFIGRLVRPKGDKMRDEL
As to B1, the binding entry in assay [1] is recorded as “binds”.

B2: DDX6, P26196 1-483 (protein)
chain: MSTARTENPVIMGLSSQNGQLRGPVKPTGGPGGGGTQTQQQMNQLKNTNTINNGTQQQAQSMTTTIKPGDDWKKTLKLPPKDLRIKTSDVTSTKGNEFEDYCLKRELLMGIFEMGWEKPSPIQEESIPIALSGRDILARAKNGTGKSGAYLIPLLERLDLKKDNIQAMVIVPTRELALQVSQICIQVSKHMGGAKVMATTGGTNLRDDIMRLDDTVHVVIATPGRILDLIKKGVAKVDHVQMIVLDEADKLLSQDFVQIMEDIILTLPKNRQILLYSATFPLSVQKFMNSHLQKPYEINLMEELTLKGVTQYYAYVTERQKVHCLNTLFSRLQINQSIIFCNSSQRVELLAKKISQLGYSCFYIHAKMRQEHRNRVFHDFRNGLCRNLVCTDLFTRGIDIQAVNVVINFDFPKLAETYLHRIGRSGRFGHLGLAINLITYDDRFNLKSIEEQLGTEIKPIPSNIDKSLYVAEYHSEPVEDEKP
For B2, in assay [2], the binding entry is on record as “binds”.
